Data as given in PMC12523187.
Results are given in words; binding and its absence hold for the method and conditions named. In cells and extracts the contact can be indirect. Some binding calls cover weakened binding; strength is not graded here.

Protein sequences, listed by entry. Tags and fused reporters are not part of them.
UniProt P45974: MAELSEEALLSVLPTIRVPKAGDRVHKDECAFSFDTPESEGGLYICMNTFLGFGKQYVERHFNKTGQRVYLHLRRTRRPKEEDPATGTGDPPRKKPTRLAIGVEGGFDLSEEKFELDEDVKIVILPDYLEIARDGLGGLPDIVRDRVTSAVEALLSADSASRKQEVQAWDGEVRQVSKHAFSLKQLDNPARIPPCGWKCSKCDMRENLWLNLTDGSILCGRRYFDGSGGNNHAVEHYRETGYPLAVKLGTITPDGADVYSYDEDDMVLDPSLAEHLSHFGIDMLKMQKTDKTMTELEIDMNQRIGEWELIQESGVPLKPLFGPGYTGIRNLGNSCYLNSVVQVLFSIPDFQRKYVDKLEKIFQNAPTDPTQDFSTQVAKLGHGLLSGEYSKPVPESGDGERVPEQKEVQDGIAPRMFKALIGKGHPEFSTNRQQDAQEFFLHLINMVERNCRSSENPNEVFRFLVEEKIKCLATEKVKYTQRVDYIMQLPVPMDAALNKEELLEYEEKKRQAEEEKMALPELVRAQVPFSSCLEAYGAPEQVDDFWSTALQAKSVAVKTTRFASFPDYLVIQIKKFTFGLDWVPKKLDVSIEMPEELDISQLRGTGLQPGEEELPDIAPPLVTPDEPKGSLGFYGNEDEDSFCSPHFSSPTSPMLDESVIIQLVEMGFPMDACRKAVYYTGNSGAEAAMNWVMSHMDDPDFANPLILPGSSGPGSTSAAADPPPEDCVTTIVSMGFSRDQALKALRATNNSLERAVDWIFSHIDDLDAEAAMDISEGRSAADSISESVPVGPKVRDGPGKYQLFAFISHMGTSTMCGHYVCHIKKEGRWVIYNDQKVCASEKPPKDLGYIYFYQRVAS

Target: Flag-USP5 (wild type) (UniProt P45974)
Assay: co-IP; MDA-MB-231/SK-BR-3 cells co-transfected with HA-GPX4 (or mutants) and Flag-USP5; precipitated with anti-Flag antibody

GPX4-Δ2 (aa 28-197), HA-tagged (from UniProt P36969 28-197) (domain or fragment)
binding: binds
